Some results were stated once for a whole list of compounds, not compound by compound.
Test system: SKCO1 (KRASmut) xenograft tumors
Test: SKCO1 xenograft growth assessment
Type: in vivo, mice
Conditions: single agent treatment
Protocol: A suspension of human SKCO1 and SW837 cells (5×10^6) and HT29 (3×10^6) in Matrigel (Cat. #356231, BD Biosciences; 1:1 v/v) were injected subcutaneously into the right flank of 4-6 week old SCID Hairless Outbred (SHO), NOD SCID, or CD-1 nu/nu (Jackson Laboratories) mice, respectively. When tumors reached a size of ˜300 mm3 (Length*Width*Width*0.5), mice were randomized into treatment groups. […] Animals were weighed and tumor volumes were determined by calipering 2 times per week during the study and at termination. Tumor weight was measured and recorded at termination. On day 28 animals were sacrificed by CO2 asphyxiation. […] At time of sacrifice tumors pieces were collected for western blot analysis (snap frozen in liquid nitrogen) and for immunohistochemistry (10% neutral buffered formalin).

NC1(c2ccc(-c3nc4ccn5c(=O)[nH]nc5c4cc3-c3ccccc3)cc2)CCC1 [MK-2206, 8-[4-(1-Aminocyclobutyl)phenyl]-9-phenyl[1,2,4]triazolo[3,4-f]-1,6-naphthyridin-3(2H)-one]
tumor size of single agent treated tumors (remained stable): 500-700 mm^3

— US20130287763A1, “COMBINATION THERAPY FOR TREATING CANCER COMPRISING AN IGF-1R INHIBITOR AND AN AKT INHIBITOR” (MERCK SHARP & DOHME CORP., priority 2010, published 2013)
